We go through two sequences from patent publication US20150133651, “CslA9 Gluco-mannan Synthase Gene” (published 2015).

Series [1] deals with T1, ANAC041 (At2g33480) (Arabidopsis thaliana) (UniProt O22798).
T1 sequence (limits assumed): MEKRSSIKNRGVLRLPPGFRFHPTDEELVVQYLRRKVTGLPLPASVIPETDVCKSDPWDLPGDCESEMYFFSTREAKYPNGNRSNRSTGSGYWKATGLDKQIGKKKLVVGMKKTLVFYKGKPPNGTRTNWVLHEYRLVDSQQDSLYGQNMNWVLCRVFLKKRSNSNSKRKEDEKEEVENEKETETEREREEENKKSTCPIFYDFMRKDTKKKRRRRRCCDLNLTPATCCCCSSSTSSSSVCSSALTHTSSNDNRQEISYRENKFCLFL
Description: EMSA. To be noted: purified recombinant protein; protein details: GST fusion, E. coli Rosetta gami; label: 32P. In general terms: Mobility shift assays separate free from complexed probe on a gel.

Series [2] addresses T2, AtbZIP1 (At5g49450) (Arabidopsis thaliana) (UniProt Q9FGX2).
T2 sequence (limits assumed): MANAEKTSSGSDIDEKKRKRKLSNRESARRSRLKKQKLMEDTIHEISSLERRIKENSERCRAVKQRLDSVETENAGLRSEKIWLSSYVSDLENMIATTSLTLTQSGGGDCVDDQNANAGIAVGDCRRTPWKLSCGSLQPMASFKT
Description: EMSA. To be noted: purified recombinant protein; protein details: GST fusion, E. coli Rosetta gami; label: 32P.

Where a protein sequence is shown, tags need not be part of it.

In the case of “TTCGATTATCCTCATCAGAGATGTTCGCTATCTTGTCAATAGATGAGGACAAACAATATGAGACGATATATTTTCCTCGAGAAATGAACCATTAGAATCACTCTACTTTTGGAATTAACCGGTTATGCAAGTCCATATGATTTGTATAAATACTGATATACATAATGCTCATCTATAATGCATAGTTTTTTCATTCAGCTCTAAAATATTATAAGTAATGTTATTGAGCCTCGATTGATTGATTGACAAAAAAAAAAAATGTTATTGAGCCTTCGATTCTTTTTTTGAGCCTTTAATTGG (double strand) [CSLA9 promoter -1312 to -1013]”, the binding result in series [1] was “binds”.

Take “AAGCATTTTTTTTAACAATGACATTTTTATTTTTTAAGAAAATTATTTTATCAGAAACTTAAAATAACAATTTGTTTTGTATCTTCGCCTGGACGTCATTAATGTTTGTGTCGTTCAATAATGTTTGGTAGTTATATATAGAAAGAGCAAATTTATGGTTGATTGATGGTGCAAAAAAATTCATTTCTCTATATTCTAGAGAAATAAAATAAAAGAATAATGGAATATTAAATAGAGTCTAAAACAATATACACAAGGACAGAGCCTTTATATATAAAGACATTGATCTCTCTCTGATTT (double strand) [CSLA9 promoter -762 to -463]”: in series [2], the binding result is reported as “binds”.
